Data reported in the supplement of paper PMC12764529.
± gives the half width of the 95% confidence interval. The two proteases of the assay disagree for many of these sequences.

How the values were obtained:
[1] = folding stability dG unfold from trypsin proteolysis; higher = more stable
Procedure: (§1)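 Folding stability of de novo designed mini-proteins (<80 aa, no Cys; designed by TrROS, TrMRF, ProteinMPNN and the joint model) was measured by cDNA display proteolysis with trypsin and chymotrypsin. Each protease was used at 11 concentrations in a threefold dilution series plus a no-protease condition. K50 was inferred by Bayesian fitting of sequencing counts, and dG unfold was derived against a sequence-predicted unfolded-state K50 (Tsuboyama et al. method). Sequences shown include variable-length N-terminal GS-type padding (SAGGSAGG...) inside a display construct carrying a PA tag. Rows were kept only if the AF2 dimer inter-PAE was >15, to exclude likely homo-oligomers.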

[2] = folding stability dG unfold (combined trypsin and chymotrypsin); higher = more stable
Procedure: as §1

[3] = folding stability dG unfold from chymotrypsin proteolysis; higher = more stable
Procedure: as §1

Sequence	folding stability dG unfold [1] [kcal/mol]	folding stability dG unfold [2] [kcal/mol]	folding stability dG unfold [3] [kcal/mol]
SAGEELLREIAKKLNLPEGAEIVKVEIKVEEKDGRLRITITITVRNKETGELKTIEIEIEIELPEEEEESAG [r5_94_TrROS_Hall]	3.9 ± 0.27	4.01 ± 0.43	–
SAGGSAGGDLLKEALEQMPPGEEREINLEFEYYNPNGPPRKQNYTIRIKVDPKNNKMKVDIEPPSAGGSAGG [r6_712_TrROS]	1.45 ± 0.13	0.552 ± 0.54	–
SAGGSAGGSSMPVKVTRTPVPSSAPPSTEFLETVTYPDGTVTTYRFRRDDGSVTSVRVSTSPASAGGSAGGS [r12_1049_JUSTAS]	-0.535 ± 0.71	< -1	–
SAEEELRKLVEELARELAKENGLEEVTVTLTVTVTKTVTVTDADGKKHTVTTTVTVTLTVTLTLPPEDLSAG [r14_232_TrROS_Hall]	3.94 ± 0.89	> 6	–
SAGGSAGGSSVTLVLPKAKTEEEARKAIEEEIRKLLPPGAKVEIRIEKNEDGEVRVVVRIEKPSAGGSAGGS [r20_122_TrROS_Hall]	2.1 ± 0.062	1.35 ± 0.11	–
SAMKIKEIKIEKEGNTITIEVKIEKDGKEYLVKVRIEVKKDKNGKLIKKIEIEIYDKDGKKVLKLEIELSAG [r14_465_TrROS_Hall]	3.44 ± 0.41	> 6	–
SAGGSSVTVTPTPDGMVVTVETDGETVTVPLSPEVAAEIAANPDLAAVLAALFPPGRPVASVSVEPASAGGS [r16_567_JUSTAS]	1.54 ± 0.06	0.582 ± 0.053	–
SAGGSAGGSAGGSMIEVELTSPESGSLTIKVPPDSSYTVTIGSSPVKITVTPNEVVATPVSAGGSAGGSAGG [r7_510_JUSTAS]	1.34 ± 0.059	0.482 ± 0.12	–
SAGGSAGGDGDFRVSIDPEELPDGQEYKISIQSPDGKPIAEIPIRIPLPPPKPERDDNGKPKPVSAGGSAGG [r6_487_TrROS]	0.844 ± 0.025	0.216 ± 0.099	–
SAGGSAGGSAGGSSVETSTLPDGSVVETTRLPDGGVVVTEATVPPDGSVTVTSTSVLPLSAGGSAGGSAGGS [r4_246_JUSTAS]	2.03 ± 0.11	1.13 ± 0.13	–
SAGGSSISSSSPISITVEKVEVETTTTTFPGGEPPVPIGKPKEITVTITSRPLPNGTVLSSTTTVGSAGGSA [r2_218_JUSTAS]	1.19 ± 0.025	0.357 ± 0.056	–
SAGGSAGGSKKKITVKIEEVKLNPETGKLVLVKIKLPDGKELVFKTPEEIENLPGAEFEVYELSAGGSAGGS [r20_192_TrROS_Hall]	–	1.45 ± 0.27	1.47 ± 0.13
SAGGSAGGSAGGMTTVRRFDPTADPETLAAALPDDVVEVTVDRSPALEAAGGVAVSATRASAGGSAGGSAGG [r11_1002_JUSTAS]	–	0.527 ± 0.058	1.09 ± 0.02
SAGGSAGGSAGSSTVTYPNSTVTTELGGPALTTTTTDPNTTSTTVTVTPLPGVAPTPAAASAGGSAGGSAGG [r11_788_JUSTAS]	–	1.02 ± 0.056	1.36 ± 0.022
SAGGSAGGSAATVGEATLPDGSKVLVVTLPRADGRVLAVAALPDGTVIATADLATGRVTVFPASAGGSAGGS [r20_159_TrMRF]	–	0.656 ± 0.093	1.21 ± 0.075
SAGGSAGGSAGSLEGLSSAPPDVVVDVELDLVVEEPAEPPRGSPVARPVAPVRRRVRYRPSAGGSAGGSAGG [r11_36_JUSTAS]	–	0.417 ± 0.15	1.01 ± 0.14
SAGGSAITIRPEELLRLAREPGLEVEFEPLPDGRLVLTIYDPSTGARIDVVVLPPPLGGVVPRPVPSAGGSA [r15_442_TrMRF]	–	1.76 ± 0.12	2.27 ± 0.032
SMTVIEIKVKLSEEEVKELVEKLKEELPEDVEVVDIEVEEKEGYVVIKIVIKDPELSPEQLEKLRKLLEESA [r9_195_TrROS_Hall]	–	> 6	3.28 ± 0.34

2 successive records out of the list so far, for reference:
Sequence	folding stability dG unfold [1] [kcal/mol]	folding stability dG unfold [2] [kcal/mol]	folding stability dG unfold [3] [kcal/mol]
SAGGSAITIRPEELLRLAREPGLEVEFEPLPDGRLVLTIYDPSTGARIDVVVLPPPLGGVVPRPVPSAGGSA [r15_442_TrMRF]	–	1.76 ± 0.12	2.27 ± 0.032
SMTVIEIKVKLSEEEVKELVEKLKEELPEDVEVVDIEVEEKEGYVVIKIVIKDPELSPEQLEKLRKLLEESA [r9_195_TrROS_Hall]	–	> 6	3.28 ± 0.34

The list continues.

Sequence	folding stability dG unfold [1] [kcal/mol]	folding stability dG unfold [2] [kcal/mol]	folding stability dG unfold [3] [kcal/mol]
SAGGSKPEKIKVVSVEVFPDGLIKVKVKTESGYEATALIVKLPGDKYLIFLTIPANGKPFVFELPASAGGSA [r2_361_TrMRF]	–	2.54 ± 0.072	2.61 ± 0.031
SAGGSAGGSMKPLGQGDFEDPDGWKIKISMYPDGWFRIEIYDKNGKPKETIPVPANDLPDILKSAGGSAGGS [r12_664_TrROS]	–	1.21 ± 0.064	1.43 ± 0.053
SAGGSAGGSAGGEIKGKKFKIVKIVEVRYDKETKEFYVRIYIEDTNEIITVRLEDLPEELSAGGSAGGSAGG [r7_304_TrROS_Hall]	–	2.25 ± 0.18	2.29 ± 0.025
SAMIIDVTVTLPPSDPAAEQQARDTAEAVAAAINAAGHPVAVTVLSVTREVLPDGTLRITIPIKVETAASAG [r14_48_JUSTAS]	–	1.45 ± 0.11	1.92 ± 0.038
SAGGSASSITSTSLSLEETVPGDPDVVVVTRTVTTTTPLPDGSPATHTTTSSTKVVTSPEELAAASSAGGSA [r15_1019_JUSTAS]	–	0.708 ± 0.058	1.2 ± 0.012
SRPPEETLTLTFEQEIVPGDPAAVAAAIEAARAAARAALAEAGLPDVAEVRVEEVEVDPEGRVRVTVRVASA [r9_754_JUSTAS]	–	0.7 ± 0.045	1.1 ± 0.05
SAGGSAGGSAGGGLAEVELEFPVLGLRLRLVYRLEGDVPTILDAELELEPLPPLEPNLDKSAGGSAGGSAGG [r7_276_TrMRF]	–	2.99 ± 0.23	3.74 ± 0.093
SAGGSMQPRYKVETTETTETYPERGLKTKTTTTTVTLPDGSTVTTTTTTTYDPSNGTPVATTTTTDPAASAG [r5_819_JUSTAS]	–	1.1 ± 0.11	1.81 ± 0.039
SAGSSLTPEETASETPSFTTLPGPPGLTVETRTTTLPTPPYPVTTETTLHDPRTGTSTTTTTTTLDPGGSAG [r5_471_JUSTAS]	–	0.534 ± 0.089	1.15 ± 0.042
SAGKKITIEIEVKVKTLEEALKKAKELIEKILKELFPGKKLKVKIVKIEVEKEENGELIVKIKIEIEEESAG [r5_320_TrROS_Hall]	–	> 6	3.36 ± 0.22
SAEREVTVTRTRRRDGRRTVTETRRVRVRLRLRVTLPDGRELTVELPPALRALSPELQEAARRLAEALLSAG [r14_555_TrROS_Hall]	–	2.15 ± 0.071	2.76 ± 0.053
SAGGSAGGSAGGSGKTTVETVPGTGNVAGTTTTTTLPDGSLTSTTTTTAAVPAVDPAAASAGGSAGGSAGGS [r4_178_JUSTAS]	–	1.03 ± 0.036	1.5 ± 0.045
SAGGSAGGSAGGGAGGATSTTTSTTHLPNGTVTTTTTTTTTNADGTVTTTTTTTTTTVAASAGGSAGGSAGG [r7_125_JUSTAS]	–	1.23 ± 0.059	1.54 ± 0.025
SAGGSAGGSAGKEVTVEKVEVKPGMKIKILDTGKEIEVKEGEEILKDKNIKPGMKIEVEPSAGGSAGGSAGG [r17_289_TrROS_Hall]	–	0.691 ± 0.056	1.32 ± 0.035
SAGGSAGGSAGGGSMTVTEEELPGGERRVTTRDPATGTTTTTLLKPGGDVVETLTDPAASAGGSAGGSAGGS [r10_1044_JUSTAS]	–	0.999 ± 0.066	1.43 ± 0.017
SAGGSAGGSAGGSMTVSYPGTTRTVPPGSPVVVGGGRVVDPALSFSEVSPEDRVAVGSAPSAGGSAGGSAGG [r17_511_JUSTAS]	–	0.493 ± 0.087	1.05 ± 0.019
SAGGSAGGSAGGAKPVTFTFPDGTKAVSVEETPTSVVLYDPGPGALYVLDKETKTITPASAGGSAGGSAGGS [r10_289_TrMRF]	–	-0.72 ± 0.34	-0.512 ± 0.29
SAGGSAGGSAGGSMTRVFVRKPDYWLEVEEYPDPKNPDRIRLTVKKKIPLSEVTPEELASAGGSAGGSAGGS [r4_316_JUSTAS]	-0.0403 ± 0.26	–	–
